The supplement of paper PMC10849652
The list shows a part of the results.

Amino acid sequences for entries named in this document (tags omitted). A change or cut given only in a name is not applied to a line headed by its entry.
UniProt Q8N128: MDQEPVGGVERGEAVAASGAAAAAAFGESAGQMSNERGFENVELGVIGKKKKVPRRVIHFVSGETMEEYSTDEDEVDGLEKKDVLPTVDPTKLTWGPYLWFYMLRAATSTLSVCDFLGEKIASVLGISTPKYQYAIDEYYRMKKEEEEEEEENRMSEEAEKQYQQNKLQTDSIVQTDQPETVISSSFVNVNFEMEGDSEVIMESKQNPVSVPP
UniProt Q8N8J7: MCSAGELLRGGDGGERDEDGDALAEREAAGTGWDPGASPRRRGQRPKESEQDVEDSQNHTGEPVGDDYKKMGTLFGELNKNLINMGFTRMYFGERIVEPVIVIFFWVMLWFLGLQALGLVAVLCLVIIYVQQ
UniProt Q5T8I3: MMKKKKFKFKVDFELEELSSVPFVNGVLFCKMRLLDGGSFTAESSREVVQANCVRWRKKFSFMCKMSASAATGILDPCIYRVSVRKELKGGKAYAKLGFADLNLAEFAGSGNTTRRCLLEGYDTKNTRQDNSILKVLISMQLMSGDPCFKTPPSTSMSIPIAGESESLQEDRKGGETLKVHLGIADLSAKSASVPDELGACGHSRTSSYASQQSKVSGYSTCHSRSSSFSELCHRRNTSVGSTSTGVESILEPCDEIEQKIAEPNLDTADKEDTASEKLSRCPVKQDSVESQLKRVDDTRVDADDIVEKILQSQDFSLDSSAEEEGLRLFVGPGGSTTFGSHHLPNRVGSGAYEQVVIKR
UniProt Q6IPR1: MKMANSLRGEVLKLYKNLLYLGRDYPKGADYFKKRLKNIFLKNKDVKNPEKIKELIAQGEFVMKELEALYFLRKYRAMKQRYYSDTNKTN
UniProt Q9Y2C4: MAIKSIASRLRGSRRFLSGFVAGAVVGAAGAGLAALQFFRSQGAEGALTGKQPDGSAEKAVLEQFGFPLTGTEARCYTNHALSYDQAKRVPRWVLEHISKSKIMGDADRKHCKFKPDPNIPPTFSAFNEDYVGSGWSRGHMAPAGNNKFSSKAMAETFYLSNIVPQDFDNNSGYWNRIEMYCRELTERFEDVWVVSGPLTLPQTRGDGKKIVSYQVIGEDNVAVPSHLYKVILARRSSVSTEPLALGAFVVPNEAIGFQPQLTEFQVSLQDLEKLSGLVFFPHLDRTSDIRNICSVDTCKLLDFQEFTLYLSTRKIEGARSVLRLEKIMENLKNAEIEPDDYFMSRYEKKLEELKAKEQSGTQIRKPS
UniProt Q96PV7: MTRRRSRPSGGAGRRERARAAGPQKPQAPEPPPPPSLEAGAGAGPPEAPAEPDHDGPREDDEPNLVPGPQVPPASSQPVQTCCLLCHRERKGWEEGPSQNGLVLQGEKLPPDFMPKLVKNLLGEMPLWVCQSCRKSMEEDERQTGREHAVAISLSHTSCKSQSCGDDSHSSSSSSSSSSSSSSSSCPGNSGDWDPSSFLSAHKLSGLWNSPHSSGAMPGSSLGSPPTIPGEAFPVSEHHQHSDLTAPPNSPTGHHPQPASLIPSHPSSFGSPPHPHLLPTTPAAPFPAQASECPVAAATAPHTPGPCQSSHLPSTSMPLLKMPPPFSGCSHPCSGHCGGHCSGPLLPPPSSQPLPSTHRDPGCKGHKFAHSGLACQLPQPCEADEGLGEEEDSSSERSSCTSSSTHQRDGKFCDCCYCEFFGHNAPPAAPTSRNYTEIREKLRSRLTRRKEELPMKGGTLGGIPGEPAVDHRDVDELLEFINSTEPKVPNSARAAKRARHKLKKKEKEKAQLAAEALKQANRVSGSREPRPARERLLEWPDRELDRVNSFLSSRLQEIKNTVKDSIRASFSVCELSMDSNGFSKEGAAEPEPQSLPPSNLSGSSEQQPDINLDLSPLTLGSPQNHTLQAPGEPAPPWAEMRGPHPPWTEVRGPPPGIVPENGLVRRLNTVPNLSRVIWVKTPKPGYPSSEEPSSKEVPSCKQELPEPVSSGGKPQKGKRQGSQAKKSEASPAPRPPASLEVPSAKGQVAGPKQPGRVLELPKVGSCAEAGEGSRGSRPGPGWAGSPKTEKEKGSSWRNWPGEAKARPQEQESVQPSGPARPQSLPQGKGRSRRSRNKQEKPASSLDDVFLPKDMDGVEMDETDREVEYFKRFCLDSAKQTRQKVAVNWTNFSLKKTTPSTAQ
UniProt Q6P1L5: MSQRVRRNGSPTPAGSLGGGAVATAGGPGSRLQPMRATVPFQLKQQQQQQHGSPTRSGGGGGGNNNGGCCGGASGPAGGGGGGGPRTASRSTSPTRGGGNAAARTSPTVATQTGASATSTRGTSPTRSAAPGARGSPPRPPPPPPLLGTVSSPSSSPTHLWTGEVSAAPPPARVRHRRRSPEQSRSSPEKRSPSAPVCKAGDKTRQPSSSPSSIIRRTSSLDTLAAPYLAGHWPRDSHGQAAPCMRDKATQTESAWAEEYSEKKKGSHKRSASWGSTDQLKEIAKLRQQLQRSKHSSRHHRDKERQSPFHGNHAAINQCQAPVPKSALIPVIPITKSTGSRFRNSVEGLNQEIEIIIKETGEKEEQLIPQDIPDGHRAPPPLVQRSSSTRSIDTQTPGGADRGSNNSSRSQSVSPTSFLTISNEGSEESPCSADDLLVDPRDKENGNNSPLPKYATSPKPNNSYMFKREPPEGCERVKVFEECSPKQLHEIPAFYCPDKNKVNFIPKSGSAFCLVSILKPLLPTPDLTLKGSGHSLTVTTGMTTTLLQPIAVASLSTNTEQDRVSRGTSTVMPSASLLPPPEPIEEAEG
UniProt Q9H0Q0: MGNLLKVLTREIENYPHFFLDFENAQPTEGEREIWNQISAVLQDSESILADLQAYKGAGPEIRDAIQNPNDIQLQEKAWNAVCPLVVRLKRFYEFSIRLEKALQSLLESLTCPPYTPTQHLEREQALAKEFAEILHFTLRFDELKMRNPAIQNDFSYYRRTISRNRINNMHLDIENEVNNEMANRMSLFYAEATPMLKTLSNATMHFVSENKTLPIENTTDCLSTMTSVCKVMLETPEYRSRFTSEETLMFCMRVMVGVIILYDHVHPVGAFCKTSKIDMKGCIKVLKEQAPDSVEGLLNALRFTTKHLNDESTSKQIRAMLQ
UniProt Q8WU58: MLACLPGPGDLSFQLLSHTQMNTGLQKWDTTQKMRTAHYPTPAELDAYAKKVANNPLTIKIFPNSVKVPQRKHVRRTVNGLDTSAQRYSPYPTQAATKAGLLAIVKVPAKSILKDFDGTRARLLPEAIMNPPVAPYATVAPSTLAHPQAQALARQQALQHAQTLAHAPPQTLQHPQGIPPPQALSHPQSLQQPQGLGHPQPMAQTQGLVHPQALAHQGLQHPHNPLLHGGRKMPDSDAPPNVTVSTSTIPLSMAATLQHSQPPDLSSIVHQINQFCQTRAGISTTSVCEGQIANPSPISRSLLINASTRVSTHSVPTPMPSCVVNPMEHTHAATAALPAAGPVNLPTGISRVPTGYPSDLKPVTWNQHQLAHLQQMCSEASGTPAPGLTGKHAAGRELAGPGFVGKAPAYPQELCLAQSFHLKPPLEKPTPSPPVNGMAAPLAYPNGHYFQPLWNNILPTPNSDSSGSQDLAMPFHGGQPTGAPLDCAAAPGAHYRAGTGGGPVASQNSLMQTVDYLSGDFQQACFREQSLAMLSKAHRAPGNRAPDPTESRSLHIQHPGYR
UniProt Q99504: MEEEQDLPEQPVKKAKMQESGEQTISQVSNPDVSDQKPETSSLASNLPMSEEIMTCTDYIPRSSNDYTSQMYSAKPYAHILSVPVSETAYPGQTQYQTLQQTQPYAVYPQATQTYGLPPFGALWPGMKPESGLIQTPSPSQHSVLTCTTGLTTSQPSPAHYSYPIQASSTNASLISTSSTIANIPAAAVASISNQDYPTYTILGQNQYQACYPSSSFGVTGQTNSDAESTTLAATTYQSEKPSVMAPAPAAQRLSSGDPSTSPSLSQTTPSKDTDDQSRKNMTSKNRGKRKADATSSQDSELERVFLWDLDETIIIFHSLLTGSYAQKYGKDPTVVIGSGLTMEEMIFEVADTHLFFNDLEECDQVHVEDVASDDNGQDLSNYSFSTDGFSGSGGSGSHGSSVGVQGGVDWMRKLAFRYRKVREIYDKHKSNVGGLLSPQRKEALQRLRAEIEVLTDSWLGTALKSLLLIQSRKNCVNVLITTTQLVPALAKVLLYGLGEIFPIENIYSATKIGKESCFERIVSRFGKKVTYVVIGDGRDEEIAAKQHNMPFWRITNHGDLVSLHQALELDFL
UniProt Q7Z309: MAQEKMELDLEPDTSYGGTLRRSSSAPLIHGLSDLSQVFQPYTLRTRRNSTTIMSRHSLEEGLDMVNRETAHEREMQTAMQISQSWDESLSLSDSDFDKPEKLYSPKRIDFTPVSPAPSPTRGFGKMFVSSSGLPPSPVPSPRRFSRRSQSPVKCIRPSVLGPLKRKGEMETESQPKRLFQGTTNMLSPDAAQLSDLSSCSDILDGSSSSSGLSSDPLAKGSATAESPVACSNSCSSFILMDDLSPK
UniProt O43909: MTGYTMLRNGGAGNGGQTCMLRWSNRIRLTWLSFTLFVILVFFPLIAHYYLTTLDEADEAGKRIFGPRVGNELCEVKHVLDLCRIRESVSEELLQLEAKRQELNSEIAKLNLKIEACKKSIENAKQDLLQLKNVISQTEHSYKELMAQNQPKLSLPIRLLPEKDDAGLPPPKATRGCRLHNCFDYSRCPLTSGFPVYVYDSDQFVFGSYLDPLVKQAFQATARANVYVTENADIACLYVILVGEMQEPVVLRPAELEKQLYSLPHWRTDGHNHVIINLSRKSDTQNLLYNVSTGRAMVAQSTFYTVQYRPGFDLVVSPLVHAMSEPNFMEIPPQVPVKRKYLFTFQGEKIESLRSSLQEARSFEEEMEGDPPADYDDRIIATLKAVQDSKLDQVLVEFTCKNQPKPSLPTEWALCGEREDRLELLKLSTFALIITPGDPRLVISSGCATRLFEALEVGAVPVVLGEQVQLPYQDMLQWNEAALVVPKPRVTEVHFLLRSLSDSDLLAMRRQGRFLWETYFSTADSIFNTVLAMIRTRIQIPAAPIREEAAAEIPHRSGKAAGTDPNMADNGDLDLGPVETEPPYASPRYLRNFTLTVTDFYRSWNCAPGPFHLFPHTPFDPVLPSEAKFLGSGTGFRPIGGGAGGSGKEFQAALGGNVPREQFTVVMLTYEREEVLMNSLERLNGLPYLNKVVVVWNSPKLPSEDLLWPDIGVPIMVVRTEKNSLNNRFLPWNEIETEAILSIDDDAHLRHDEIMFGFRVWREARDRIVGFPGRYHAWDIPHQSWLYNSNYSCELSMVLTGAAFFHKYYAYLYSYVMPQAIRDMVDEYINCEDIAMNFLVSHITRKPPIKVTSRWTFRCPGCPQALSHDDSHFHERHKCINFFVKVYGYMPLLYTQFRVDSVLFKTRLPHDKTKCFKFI
UniProt P16930: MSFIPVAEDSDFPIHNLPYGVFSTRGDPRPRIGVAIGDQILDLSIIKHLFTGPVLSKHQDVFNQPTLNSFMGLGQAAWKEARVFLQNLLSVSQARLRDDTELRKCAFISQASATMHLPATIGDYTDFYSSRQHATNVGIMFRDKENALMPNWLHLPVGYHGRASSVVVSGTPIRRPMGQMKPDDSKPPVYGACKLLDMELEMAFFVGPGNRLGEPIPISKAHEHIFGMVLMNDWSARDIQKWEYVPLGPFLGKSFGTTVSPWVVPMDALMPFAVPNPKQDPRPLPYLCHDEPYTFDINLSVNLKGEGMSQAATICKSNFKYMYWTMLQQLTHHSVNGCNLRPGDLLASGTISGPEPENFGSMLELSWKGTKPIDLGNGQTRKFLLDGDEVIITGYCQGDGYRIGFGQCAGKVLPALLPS
UniProt Q9Y2D4: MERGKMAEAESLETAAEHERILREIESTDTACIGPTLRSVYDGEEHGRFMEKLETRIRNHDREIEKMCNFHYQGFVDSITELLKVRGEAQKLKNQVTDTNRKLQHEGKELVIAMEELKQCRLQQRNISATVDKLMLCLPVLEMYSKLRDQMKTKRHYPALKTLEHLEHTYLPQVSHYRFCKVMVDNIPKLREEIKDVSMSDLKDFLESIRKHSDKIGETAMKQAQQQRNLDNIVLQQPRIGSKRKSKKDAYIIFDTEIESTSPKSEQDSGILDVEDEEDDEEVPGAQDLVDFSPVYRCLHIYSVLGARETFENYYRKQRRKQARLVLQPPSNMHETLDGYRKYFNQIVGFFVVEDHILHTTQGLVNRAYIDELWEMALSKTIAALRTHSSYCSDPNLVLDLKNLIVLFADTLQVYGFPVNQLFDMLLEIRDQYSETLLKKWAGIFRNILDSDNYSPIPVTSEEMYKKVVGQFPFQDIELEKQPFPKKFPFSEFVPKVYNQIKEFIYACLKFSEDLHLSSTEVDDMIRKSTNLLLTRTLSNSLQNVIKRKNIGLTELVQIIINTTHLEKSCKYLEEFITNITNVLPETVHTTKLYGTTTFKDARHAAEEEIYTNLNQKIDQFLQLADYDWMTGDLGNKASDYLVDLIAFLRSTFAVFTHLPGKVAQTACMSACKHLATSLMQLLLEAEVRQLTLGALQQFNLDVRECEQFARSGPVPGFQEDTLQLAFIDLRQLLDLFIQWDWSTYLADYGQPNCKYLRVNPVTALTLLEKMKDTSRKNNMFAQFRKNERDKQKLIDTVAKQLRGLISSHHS

Legend:
Assay in all cases: log2 fold change, soluble protein after heating vs DMSO (PISA); higher = thermal stabilisation; K562 lysate, 10 uM; active = over 0.2 and 3.5 SD of the protein, either way, in both replicates (recomputed)
vemurafenib = compound: CCCS(=O)(=O)Nc1ccc(F)c(C(=O)c2c[nH]c3ncc(-c4ccc(Cl)cc4)cc23)c1F [vemurafenib]
Outline: (§1)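 A 30 min treatment with 10 μM compound was applied to crude K562 extract at 1 mg/mL protein in PBS pH 7.4 with 1 mM MgCl2. Heating for 3 min spanned 48°C-58°C, after which aliquots were pooled, adjusted to 0.5% NP-40 at 4°C and spun at 21,000xg for 90 min. TMTpro 16plex LC-MS/MS of the supernatant, with channel sums equalised, gave values recorded as log-two fold change in thermal stability against solvent controls, from duplicates.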

[1] = compound: CCCS(=O)(=O)Nc1ccc(F)c(C(=O)c2c[nH]c3ncc(Cl)cc23)c1F
Outline: as §1

barasertib = compound: CCN(CCCOc1ccc2c(Nc3cc(CC(=O)Nc4cccc(F)c4)[nH]n3)ncnc2c1)CCOP(=O)(O)O [barasertib]
Outline: as §1

[2] = compound: CC[C@@H]1C(=O)N(C)c2cnc(Nc3ccc(C(=O)NC4CCN(C)CC4)cc3OC)nc2N1C1CCCC1
Outline: as §1

volasertib = compound: CC[C@@H]1C(=O)N(C)c2cnc(Nc3ccc(C(=O)N[C@H]4CC[C@H](N5CCN(CC6CC6)CC5)CC4)cc3OC)nc2N1C(C)C [volasertib]
Outline: as §1

[3] = compound: CCn1c(C(=O)N(C2CC2)C2CC2)cc2c3c(ncn3C)c(Nc3cc(C)n(C)n3)nc21
Outline: as §1

[4] = compound: CCn1cc(-c2ccnc3[nH]c(-c4cccc(CN(C)C)c4)cc23)c(-c2ccc(NC(=O)N(C)C)cc2)n1
Outline: as §1

[5] = compound: CN1CCC(CNc2ccc3ncc(-c4cccc(OC(F)(F)F)c4)n3n2)CC1
Outline: as §1

saracatinib = compound: CN1CCN(CCOc2cc(OC3CCOCC3)c3c(Nc4c(Cl)ccc5c4OCO5)ncnc3c2)CC1 [saracatinib]
Outline: as §1

sotrastaurin = compound: CN1CCN(c2nc(C3=C(c4c[nH]c5ccccc45)C(=O)NC3=O)c3ccccc3n2)CC1 [sotrastaurin]
Outline: as §1

alvocidib = compound: CN1CC[C@H](c2c(O)cc(O)c3c(=O)cc(-c4ccccc4Cl)oc23)[C@H](O)C1 [alvocidib]
Outline: as §1

Tubastatin A = compound: CN1CCc2c(c3ccccc3n2Cc2ccc(C(=O)NO)cc2)C1 [Tubastatin A]
Outline: as §1

[6] = compound: CNC(=O)C1=CC=CC=C1NC2=NC(=NC=C2Cl)NC3=C(C=C(C=C3)N4CCOCC4)OC
Outline: as §1

defactinib = compound: CNC(=O)c1ccc(Nc2ncc(C(F)(F)F)c(NCc3nccnc3N(C)S(C)(=O)=O)n2)cc1 [defactinib]
Outline: as §1

[7] = compound: CNc1nc(-c2ccc3c(N)n[nH]c3c2)cc(N2C[C@@H](C(=O)NC3CCCCC3)CC[C@H]2C)n1
Outline: as §1

encorafenib = compound: COC(=O)N[C@@H](C)CNc1nccc(-c2cn(C(C)C)nc2-c2cc(Cl)cc(NS(C)(=O)=O)c2F)n1 [encorafenib]
Outline: as §1

[8] = compound: COC(=O)[C@H](CCSC)NC(=O)C1=C(C=C(C=C1)NC[C@H](CS)N)C2=CC=CC=C2
Outline: as §1

alisertib = compound: COc1cc(Nc2ncc3c(n2)-c2ccc(Cl)cc2C(c2c(F)cccc2OC)=NC3)ccc1C(=O)O [alisertib]
Outline: as §1

[9] = compound: COc1cc2nc(-c3cc(F)ccc3O)nc(N[C@@H]3CNC[C@H]3C(C)(C)O)c2cc1OC
Outline: as §1

gefitinib = compound: COc1cc2ncnc(Nc3ccc(F)c(Cl)c3)c2cc1OCCCN1CCOCC1 [gefitinib]
Outline: as §1

Target	log2 fold change (vemurafenib)	log2 fold change [1]	log2 fold change (barasertib)	log2 fold change [2]	log2 fold change (volasertib)	log2 fold change [3]	log2 fold change [4]	log2 fold change [5]	log2 fold change (saracatinib)	log2 fold change (sotrastaurin)	log2 fold change (alvocidib)	log2 fold change (Tubastatin A)	log2 fold change [6]	log2 fold change (defactinib)	log2 fold change [7]	log2 fold change (encorafenib)	log2 fold change [8]	log2 fold change (alisertib)	log2 fold change [9]	log2 fold change (gefitinib)
ESF1 (UniProt Q9H501)	inactive: -0.012	inactive: 0.104	inactive: 0.03	inactive: -0.02	inactive: -0.118	inactive: -0.005	inactive: -0.022	inactive: -0.088	inactive: -0.017	inactive: -0.001	inactive: 0.005	inactive: 0.007	inactive: 0.049	inactive: 0.013	inactive: -0.011	inactive: 0.071	inactive: -0.006	inactive: -0.016	inactive: -0.123	inactive: -0.006
FAM177A1 isoform 2 (UniProt Q8N128)	inactive: -0.004	inactive: 0.004	inactive: 0.092		inactive: 0.032	inactive: -0.008	inactive: -0.045	inactive: -0.033	inactive: 0.048	inactive: -0.071	inactive: -0.057	inactive: -0.047	inactive: 0.007	inactive: 0.046	inactive: -0.074			inactive: 0.018	inactive: 0.028	inactive: -0.055
EWSR1 (UniProt H7BY36)	inactive: -0.035		inactive: -0.055	inactive: 0.095		inactive: -0.046	inactive: -0.056	inactive: -0.043	inactive: 0.024	inactive: -0.02	inactive: 0.206	inactive: 0.179		inactive: 0.14	inactive: 0.037	inactive: 0.063	inactive: -0.061			
FAM241A (UniProt Q8N8J7)	inactive: -0.012	inactive: -0.014	inactive: 0.133	inactive: 0.007	inactive: -0.007	inactive: 0.047	inactive: -0.12	inactive: 0	inactive: 0.006	inactive: 0.022	inactive: -0.093	inactive: -0.033	inactive: 0.091	inactive: 0.065	inactive: -0.088	inactive: 0.056	inactive: -0.097		inactive: -0.059	
FAM102B (UniProt Q5T8I3)	inactive: -0.002	inactive: 0.014	inactive: 0.093	inactive: 0.007	inactive: -0.022		inactive: 0.003	inactive: 0.013		inactive: 0.002	inactive: 0.067		inactive: -0.461	inactive: 0.064		inactive: -0.054	inactive: 0.025		inactive: 0.03	
FAM53B (UniProt Q14153)	inactive: 0.046		inactive: 0.009	inactive: 0.071		inactive: 0.059	inactive: -0.096	inactive: 0.13	inactive: 0.096	inactive: -0.149	inactive: -0.125	active: 0.473	inactive: 0.098	inactive: 0.025	inactive: -0.064	inactive: 0.019	inactive: -0.1	inactive: -0.04		inactive: -0.075
ETFRF1 (UniProt Q6IPR1)	inactive: 0.084	inactive: -0.003	inactive: 0.012		inactive: -0.03	inactive: 0	inactive: -0.005	inactive: -0.03	inactive: -0.01	inactive: -0.002	inactive: 0.025	inactive: 0.032	inactive: -0.006	inactive: -0.071	inactive: 0.021			inactive: 0.003	inactive: -0.042	inactive: -0.009
EXOG (UniProt Q9Y2C4)	inactive: 0.078	inactive: -0.036	inactive: -0.073	inactive: -0.104	inactive: -0.088	inactive: 0.045	inactive: 0.039	inactive: 0.075	inactive: -0.004		inactive: -0.094	inactive: -0.059	inactive: -0.019	inactive: 0.133	inactive: -0.012	inactive: 0.206	inactive: -0.04	inactive: 0.091	inactive: -0.099	inactive: -0.018
FAM193B (UniProt Q96PV7)	inactive: 0.017	inactive: -0.089			inactive: -0.012		inactive: -0.134	inactive: -0.016		inactive: -0.318	inactive: -0.11		inactive: 0.108	inactive: 0.018					inactive: -0.042	
FAM117B (UniProt Q6P1L5)	inactive: -0.093	inactive: 0.005			inactive: 0.02	inactive: -0.108	inactive: -0.083	inactive: -0.009	inactive: -0.039	inactive: 0.062	inactive: -0.073	inactive: -0.202	inactive: -0.022	inactive: 0.023	inactive: 0.029			inactive: -0.049	inactive: 0.012	inactive: -0.012
FAM49A (UniProt Q9H0Q0)	inactive: 0.009	inactive: 0.033	inactive: 0.283	inactive: 0.324	inactive: -0.066	inactive: 0.355	inactive: 0.031	inactive: -0.052		inactive: 0.061	inactive: -0.068	inactive: -0.404	inactive: 0.031	inactive: -0.092		inactive: -0.056	inactive: 0.032	inactive: -0.171	inactive: 0.04	inactive: -0.031
FAM222B (UniProt Q8WU58)	inactive: -0.027		inactive: 0.362	inactive: 0.036		inactive: 0.107			inactive: 0.04	inactive: -0.036		inactive: 0.026	inactive: 0.007	inactive: 0.064	inactive: 0.076	inactive: -0.156	inactive: -0.007	inactive: 0.01		inactive: -0.052
EYA3 (UniProt Q99504)	inactive: 0.09	inactive: 0.062	inactive: -0.022	inactive: -0.04	inactive: -0.042	inactive: -0.05	inactive: -0.14	inactive: -0.068	inactive: -0.015	inactive: -0.028	inactive: -0.012	inactive: -0.041	inactive: -0.007	inactive: -0.002	inactive: 0.013	inactive: -0.077	inactive: 0.135	inactive: -0.011	inactive: 0.046	inactive: 0.001
EXO1 (UniProt Q9UQ84)	inactive: -0.15	inactive: 0.009			inactive: -0.015	inactive: 0.153	inactive: -0.067	inactive: 0.208		inactive: 0.035	inactive: -0.042	inactive: -0.144	inactive: 0.33	inactive: 0.023				inactive: -0.087	inactive: -0.033	inactive: -0.063
FAM122B isoform 3 (UniProt Q7Z309)	inactive: -0.108	inactive: -0.047	inactive: -0.034	inactive: 0.139	inactive: 0.029	inactive: -0.089	inactive: -0.095	inactive: 0.236	inactive: 0.034	inactive: 0.025	inactive: -0.163	inactive: -0.009	inactive: 0.11	inactive: -0.169	inactive: -0.047	inactive: 0.213	inactive: 0		inactive: 0.076	
FAM185A (UniProt Q8N0U4)	inactive: 0.344	inactive: -0.075	inactive: -0.033		inactive: -0.068	inactive: -0.12	inactive: 0.045	inactive: 0.07	inactive: -0.017	inactive: -0.035	inactive: 0.012	inactive: -0.061	inactive: 0.145	inactive: -0.493	inactive: 0.07				inactive: 0.033	
EXTL3 (UniProt O43909)	inactive: -0.112	inactive: 0.061			inactive: -0.135	inactive: 0.022	inactive: 0.075	inactive: -0.008	inactive: -0.04	inactive: -0.002	inactive: -0.096	inactive: 0.035	inactive: -0.105	inactive: -0.182	inactive: -0.03				inactive: -0.073	
FAH isoform 2 (UniProt P16930)	inactive: 0.118	inactive: 0.049	inactive: 0.003	inactive: -0.104	inactive: 0	inactive: -0.085	inactive: -0.293	inactive: 0.139	inactive: -0.02	inactive: 0.033	inactive: -0.189	inactive: 0.188		inactive: -0.184	inactive: 0.123	inactive: 0.048	inactive: 0	inactive: 0.219	inactive: -0.027	inactive: -0.041
EXOC6B (UniProt Q9Y2D4)	inactive: 0.01	inactive: 0.039		inactive: 0.038	inactive: -0.087					inactive: 0.003				inactive: -0.049		inactive: -0.061	inactive: 0.019	inactive: -0.002	inactive: 0.01	inactive: 0

Already shown: an excerpt of the list.
Target	log2 fold change (vemurafenib)	log2 fold change [1]	log2 fold change (barasertib)	log2 fold change [2]	log2 fold change (volasertib)	log2 fold change [3]	log2 fold change [4]	log2 fold change [5]	log2 fold change (saracatinib)	log2 fold change (sotrastaurin)	log2 fold change (alvocidib)	log2 fold change (Tubastatin A)	log2 fold change [6]	log2 fold change (defactinib)	log2 fold change [7]	log2 fold change (encorafenib)	log2 fold change [8]	log2 fold change (alisertib)	log2 fold change [9]	log2 fold change (gefitinib)
FAM177A1 isoform 2 (UniProt Q8N128)	inactive: -0.004	inactive: 0.004	inactive: 0.092		inactive: 0.032	inactive: -0.008	inactive: -0.045	inactive: -0.033	inactive: 0.048	inactive: -0.071	inactive: -0.057	inactive: -0.047	inactive: 0.007	inactive: 0.046	inactive: -0.074			inactive: 0.018	inactive: 0.028	inactive: -0.055
EWSR1 (UniProt H7BY36)	inactive: -0.035		inactive: -0.055	inactive: 0.095		inactive: -0.046	inactive: -0.056	inactive: -0.043	inactive: 0.024	inactive: -0.02	inactive: 0.206	inactive: 0.179		inactive: 0.14	inactive: 0.037	inactive: 0.063	inactive: -0.061			
